{"source": "PubChem BioAssay AID720706", "about": "(Broad Institute, 2013)", "note": "The other results are listed elsewhere or left out.", "data": [{"assay": "GFP drop in mixed WT/humanized-ribosome E. coli culture – GFP/RFP fluorescence, OD600, single point, bacterial rRNA inhibitor project, primary screen (AID 720706)", "settings": "E. coli WT GFP vs humanized-ribosome RFP mutants, 24 h; OD600 change: measured here: OD600 growth, DMSO median 0, no signal -100; RFP signal change: measured here: RFP humanized mutant strains, DMSO median 0, no signal -100, concentration not given here", "units": {"OD600 change": "%", "RFP signal change": "%"}, "values": [{"smiles": "CCC(=O)N(c1ccccc1)C1(COC)CCN(CCn2nnn(CC)c2=O)CC1", "OD600 change": 3.87, "RFP signal change": -0.753}, {"smiles": "CCC(=O)N(c1ccccc1)C1(COC)CCN(CCc2cccs2)CC1", "OD600 change": -0.02, "RFP signal change": 2.35}, {"smiles": "CC(C)/C=N\\N=C(\\N)N[N+](=O)[O-]", "OD600 change": 4.14, "RFP signal change": -5.3}]}]}
